From article PMC7566600, “Engineering Af1521 improves ADP-ribose binding and identification of ADP-ribosylated proteins” (Nature Communications, 2020)
Results are given in words; binding and its absence hold for the method and conditions named. Some entries that bind do so weakly or less than the wild type. Sequences can lack the tags named with a protein.

Protein sequences, listed by entry. Tags and fused reporters are not part of them.
UniProt P09874: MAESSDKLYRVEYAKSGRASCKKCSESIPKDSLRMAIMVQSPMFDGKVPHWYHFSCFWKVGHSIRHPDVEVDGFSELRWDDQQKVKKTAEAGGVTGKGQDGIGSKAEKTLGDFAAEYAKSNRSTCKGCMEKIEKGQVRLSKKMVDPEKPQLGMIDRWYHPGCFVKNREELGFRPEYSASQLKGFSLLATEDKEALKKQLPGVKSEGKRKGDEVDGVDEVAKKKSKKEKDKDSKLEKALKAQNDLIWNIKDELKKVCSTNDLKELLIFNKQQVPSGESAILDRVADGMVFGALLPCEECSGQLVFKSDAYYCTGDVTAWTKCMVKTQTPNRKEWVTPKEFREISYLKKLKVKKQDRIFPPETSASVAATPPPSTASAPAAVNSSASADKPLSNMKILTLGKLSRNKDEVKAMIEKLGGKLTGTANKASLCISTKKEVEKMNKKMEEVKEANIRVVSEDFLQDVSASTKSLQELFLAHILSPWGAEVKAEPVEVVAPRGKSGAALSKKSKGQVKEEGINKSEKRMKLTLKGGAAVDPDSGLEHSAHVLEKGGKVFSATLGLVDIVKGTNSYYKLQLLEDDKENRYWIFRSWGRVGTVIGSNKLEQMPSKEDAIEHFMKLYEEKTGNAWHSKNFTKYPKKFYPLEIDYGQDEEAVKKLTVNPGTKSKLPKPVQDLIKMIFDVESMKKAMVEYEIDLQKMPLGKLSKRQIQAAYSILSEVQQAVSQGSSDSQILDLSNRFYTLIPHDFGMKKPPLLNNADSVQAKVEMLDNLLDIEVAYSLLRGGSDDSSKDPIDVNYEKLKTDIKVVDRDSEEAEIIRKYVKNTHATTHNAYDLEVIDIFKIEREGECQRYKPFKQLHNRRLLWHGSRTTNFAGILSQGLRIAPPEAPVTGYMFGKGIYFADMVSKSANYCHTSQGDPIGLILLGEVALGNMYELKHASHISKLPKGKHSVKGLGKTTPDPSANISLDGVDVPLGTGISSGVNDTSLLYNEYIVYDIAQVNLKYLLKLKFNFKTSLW

T1: GST-WT Af1521 (Archaeoglobus fulgidus) (UniProt O28751)
T1 sequence: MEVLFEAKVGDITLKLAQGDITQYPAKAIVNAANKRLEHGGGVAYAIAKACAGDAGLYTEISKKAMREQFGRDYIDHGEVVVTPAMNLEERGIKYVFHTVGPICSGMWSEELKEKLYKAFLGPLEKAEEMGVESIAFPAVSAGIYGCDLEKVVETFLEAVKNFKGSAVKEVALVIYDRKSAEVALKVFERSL


Experiments:
[1] = biological target: T1, GST-WT Af1521 (Archaeoglobus fulgidus); assay: pull-down; 25 pmol auto-modified His-tagged ARTD1 with 125 pmol GST-fusion protein, 1 h, 4 °C, 1% BSA, 50 mM NaCl, 50 mM Tris-HCl pH 8, 0.05% NP-40; captured on glutathione Sepharose 4B; immunoblot; both purified
[2] = biological target: poly-ADP-ribosylated ARTD1 (UniProt P09874); assay: far-Western, overlay or dot blot; as a6 but with the Fc fusion at 125 or 31.25 ng/ml (Supplementary Fig. 4c); both purified
[3] = biological target: poly-ADP-ribosylated ARTD1 (UniProt P09874); assay: far-Western, overlay or dot blot; recombinant modified proteins separated by SDS-PAGE, on PVDF, blocked with 5% milk in TBS-T; probed with the Fc fusion (500 ng/ml) at 4 °C overnight; IRDye 680 goat anti-mouse antibody; both purified

Molecule | binding [1] | binding [2] | binding [3]
poly-ADP-ribosylated ARTD1 (from UniProt P09874 1-1014) (enzyme) | binds |  | 
Fc-WT Af1521 (Fc fusion, UniProt O28751 1-192) MEVLFEAKVGDITLKLAQGDITQYPAKAIVNAANKRLEHGGGVAYAIAKACAGDAGLYTEISKKAMREQFGRDYIDHGEVVVTPAMNLEERGIKYVFHTVGPICSGMWSEELKEKLYKAFLGPLEKAEEMGVESIAFPAVSAGIYGCDLEKVVETFLEAVKNFKGSAVKEVALVIYDRKSAEVALKVFERSL |  | no binding (condition: at 125 or 31.25 ng/ml Fc-WT Af1521) | binds
